Experimental data as given in article PMC3121794.
No constants are given. Whether binding was seen depends on the method and setting. Binding seen in cells or lysates may run through a third protein. Some binding calls cover weakened binding; strength is not graded here.

Protein sequences, listed by entry. Tags and fused reporters are not part of them. Lines headed by an entry give the natural chain unless they say otherwise; changes in a name come on top. Chains listed by the source or under a name are the forms on record and can include a tag or linker.
UniProt P30052: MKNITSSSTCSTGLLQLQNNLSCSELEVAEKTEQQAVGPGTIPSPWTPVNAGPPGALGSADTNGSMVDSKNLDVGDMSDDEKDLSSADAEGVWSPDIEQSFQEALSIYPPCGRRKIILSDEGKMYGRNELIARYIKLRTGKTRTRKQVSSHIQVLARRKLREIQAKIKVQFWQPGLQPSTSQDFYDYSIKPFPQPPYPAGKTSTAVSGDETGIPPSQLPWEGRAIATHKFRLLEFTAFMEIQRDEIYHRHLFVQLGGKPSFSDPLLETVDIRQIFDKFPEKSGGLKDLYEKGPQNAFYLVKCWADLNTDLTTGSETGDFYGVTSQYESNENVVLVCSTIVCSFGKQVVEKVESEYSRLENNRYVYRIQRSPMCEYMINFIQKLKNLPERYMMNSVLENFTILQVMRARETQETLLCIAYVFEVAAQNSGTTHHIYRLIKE
3xFLAG-Sd mNLS^N+C (P30052, form named): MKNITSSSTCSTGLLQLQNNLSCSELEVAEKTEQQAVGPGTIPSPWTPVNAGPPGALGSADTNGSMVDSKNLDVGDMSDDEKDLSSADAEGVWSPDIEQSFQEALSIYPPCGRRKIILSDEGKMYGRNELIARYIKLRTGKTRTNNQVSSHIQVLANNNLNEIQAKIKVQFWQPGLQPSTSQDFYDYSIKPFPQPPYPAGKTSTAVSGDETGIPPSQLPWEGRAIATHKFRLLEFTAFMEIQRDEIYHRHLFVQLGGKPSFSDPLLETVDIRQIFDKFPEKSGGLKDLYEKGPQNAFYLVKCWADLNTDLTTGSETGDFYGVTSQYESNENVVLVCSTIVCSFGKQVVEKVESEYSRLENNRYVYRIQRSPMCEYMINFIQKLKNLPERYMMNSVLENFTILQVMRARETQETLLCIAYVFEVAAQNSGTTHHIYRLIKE

Experiments:
[1] = biological target: 3xFLAG-Sd mNLS^N+C (Drosophila melanogaster) (UniProt P30052); test: co-IP; S2 cells expressing 3xFLAG-Sd or 3xFLAG-Sd mNLS^N+C lysed in RIPA buffer (50 mM Tris-HCl, 150 mM NaCl, 1% NP-40, 0.5% deoxycholic acid, 0.1% SDS); lysate incubated with anti-FLAG M2 affinity gel 2 h at 4°C; western blot with anti-FLAG or anti-Importin-α3; mock transfection with water as control
[2] = biological target: 3xFLAG-Sd (Scalloped) (Drosophila melanogaster) (UniProt P30052); test: as above

binding [1]: binds weakly
binding [2]: binds
B1: Importin-α3 (protein, UniProt Q9V455 1-514)
chain: MTSMEQNRLQNFKNKGKDQDEMRRRRNEVTVELRKNKREETILKRRNVPNLDSNTDEEEQLSSSIDLKKLAKAAADATKPEQQLAAVQAARKLLSSDKNPPINDLIQSDILPILVECLKQHNHTMLQFEAAWALTNIASGTSAQTNEVVAAGAVPLFLQLLNSPAPNVCEQAVWALGNIIGDGPLLRDFVIKHGVVQPLLSFIKPDIPITFLRNVTWVIVNLCRNKDPAPPTATIHEILPALNVLIHHTDTNILVDTVWAISYLTDGGNDQIQMVIESGVVPKLIPLLGNSEVKVQTAALRAVGNIVTGSDEQTQVVLNYDALSYFPGLLSHPKEKIRKEAVWFLSNITAGNQSQVQAVINVGLLPKIIENLSKGEFQTQKEAAWAISNLTISGNREQVFTLIKEGVIPPFCDLLSCQDTQVINVVLDGLNNMLKVADSHVEAVANCIEECEGLAKIERLQSHENVEIYKLAYEIIDQYFTDEGEQTNMAPTSDGAQYNFDPHADRLTMNSFNF
